Source: US20020151680A1
Where a chain is given by its changes, count along the chain named. These are yes or no findings as the source states them, for the method shown. Some results given as binding are weak or reduced against the parent protein; the word gives no strength.

Sequences of proteins named here, by UniProt entry; tags and fusion partners are left off. Residues count along the entry.
UniProt P17948, residues 27-331: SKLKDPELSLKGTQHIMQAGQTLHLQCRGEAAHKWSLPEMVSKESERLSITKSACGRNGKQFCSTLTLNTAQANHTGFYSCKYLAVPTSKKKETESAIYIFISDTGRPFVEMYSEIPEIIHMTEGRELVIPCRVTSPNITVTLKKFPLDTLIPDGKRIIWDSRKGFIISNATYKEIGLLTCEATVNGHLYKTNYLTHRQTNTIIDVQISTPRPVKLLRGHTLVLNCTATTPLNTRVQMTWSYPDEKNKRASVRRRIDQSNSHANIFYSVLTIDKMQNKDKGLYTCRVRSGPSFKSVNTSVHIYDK
UniProt P35968, residues 24-326: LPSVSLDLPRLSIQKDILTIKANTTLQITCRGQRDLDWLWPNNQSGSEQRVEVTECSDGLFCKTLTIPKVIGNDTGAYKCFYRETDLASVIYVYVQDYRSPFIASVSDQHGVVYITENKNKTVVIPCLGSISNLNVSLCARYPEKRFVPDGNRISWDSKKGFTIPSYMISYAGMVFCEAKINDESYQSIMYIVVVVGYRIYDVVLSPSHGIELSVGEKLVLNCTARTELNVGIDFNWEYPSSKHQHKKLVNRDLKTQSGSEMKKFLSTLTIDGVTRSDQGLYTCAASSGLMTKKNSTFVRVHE
UniProt P35916, residues 25-329: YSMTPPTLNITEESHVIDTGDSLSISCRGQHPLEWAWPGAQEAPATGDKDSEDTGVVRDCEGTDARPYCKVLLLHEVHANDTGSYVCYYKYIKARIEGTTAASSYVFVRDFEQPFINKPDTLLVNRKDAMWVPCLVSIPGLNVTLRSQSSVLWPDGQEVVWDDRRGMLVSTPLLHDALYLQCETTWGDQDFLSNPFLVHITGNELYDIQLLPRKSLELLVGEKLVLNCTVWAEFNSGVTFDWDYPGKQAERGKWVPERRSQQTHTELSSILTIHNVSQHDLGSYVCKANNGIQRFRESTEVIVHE

B1: 13-5 (ligand)
chain: GQNHHEVVKFMDVYQRSYCHPIETLVDIFQEYPDEIEYIFKPPCVSVYRCGGCCNDEGLECVPTEESNITMQIMRIKPHQGQHIGEMSFANHTSCRCMSKLD
B2: 13-7 (ligand)
chain: B1 chain with D56S, E60Q
B3: 84-3 (ligand)
chain: AHYNTEILKFMDVYQRSYCHPIETLVDIFQEFGVATNTFFKPSCVPLMRCGGCCNSEGLQCVPTEESNITMQIMRIKPHQGQHIGEMSFLQHNKCECRPKKD
B4: 81-15 (ligand)
chain: AHYNTEILKFMDVYQRSYCHPIETLVDIFQEYPDEIEYIFKPSCVPLMRCGGCCNSEGLQCVPTEESNITMQIMRITVPLSQGPKPVTISFANHTSCRCMSKLD
B5: 11-5 (ligand)
chain: B1 chain with P43S, S46P, V47L, Y48M
B6: 81-5 (ligand)
chain: AHYNTEILKFMDVYQRSYCHPIETLVDIFQEYPDEIEYIFKPSCVPLMRCGGCCNDEGLECVPTEESNITMQIMRIKPHQGQHIGEMSFANHTSCRCMSKLD
B7: 11-7 (ligand)
chain: B1 chain with P43S, S46P, V47L, Y48M, D56S, E60Q
B8: 81-7 (ligand)
chain: B6 chain with D56S, E60Q
B9: 11-11 (ligand)
chain: GQNHHEVVKFMDVYQRSYCHPIETLVDIFQEYPDEIEYIFKPSCVPLMRCGGCCNSEGLQCVPTEESNITMQIMRITVPLSQGPKPVTISFLQHNKCECRPKKD
B10: 81-11 (ligand)
chain: B9 chain with G1A, Q2H, N3Y, H4N, H5T, V7I, V8L
B11: 11-15 (ligand)
chain: B4 chain with A1G, H2Q, Y3N, N4H, T5H, I7V, L8V
B12: 22-10 (ligand)
chain: AHYNTEILKSIDNEWRKTQCMPREVCIDVGKEFGVATNTFFKPPCVSVYRCGGCCNDEGLECMNTSTSYLSKTLFEITVPLSQGPKPVTISFLQHNKCECRPKKD
B13: 72-12 (ligand)
chain: B12 chain with A1G, H2Q, Y3N, N4H, T5H, I7V, L8V, D57S, E61Q
B14: 22-12 (ligand)
chain: B12 chain with D57S, E61Q
B15: 72-10 (ligand)
chain: B12 chain with A1G, H2Q, Y3N, N4H, T5H, I7V, L8V
B16: 63-7 (ligand)
chain: B1 chain with I22R, T24V, L25C, V26I, I28V, F29G, Q30K, D56S, E60Q
B17: 22-2 (ligand)
chain: AHYNTEILKSIDNEWRKTQCMPREVCIDVGKEFGVATNTFFKPPCVSVYRCGGCCNDEGLECMNTSTSYLSKTLFEIKPHQGQHIGEMSFLQHNKCECRPKKD
B18: 72-2 (ligand)
chain: B17 chain with A1G, H2Q, Y3N, N4H, T5H, I7V, L8V
B19: 22-6 (ligand)
chain: B17 chain with L91A, Q92N, N94T, K95S, E97R, R99M, P100S, K102L
B20: 72-4 (ligand)
chain: B17 chain with A1G, H2Q, Y3N, N4H, T5H, I7V, L8V, D57S, E61Q
B21: 22-8 (ligand)
chain: B17 chain with D57S, E61Q, L91A, Q92N, N94T, K95S, E97R, R99M, P100S, K102L
B22: 22-4 (ligand)
chain: B17 chain with D57S, E61Q
B23: 62-11 (ligand)
chain: GQNHHEVVKFMDVYQRSYCHPREVCIDVGKEFGVATNTFFKPPCVSVYRCGGCCNSEGLQCVPTEESNITMQIMRITVPLSQGPKPVTISFLQHNKCECRPKKD
B24: 72-8 (ligand)
chain: GQNHHEVVKSIDNEWRKTQCMPREVCIDVGKEFGVATNTFFKPPCVSVYRCGGCCNSEGLQCMNTSTSYLSKTLFEIKPHQGQHIGEMSFANHTSCRCMSKLD
B25: 82-15 (ligand)
chain: AHYNTEILKFMDVYQRSYCHPIETLVDIFQEFGVATNTFFKPPCVSVYRCGGCCNSEGLQCVPTEESNITMQIMRITVPLSQGPKPVTISFANHTSCRCMSKLD
B26: 32-11 (ligand)
chain: GQNHHEVVKSIDNEWRKTQCMPIETLVDIFQEFGVATNTFFKPPCVSVYRCGGCCNSEGLQCVPTEESNITMQIMRITVPLSQGPKPVTISFLQHNKCECRPKKD
B27: 52-11 (ligand)
chain: B26 chain with G1A, Q2H, N3Y, H4N, H5T, V7I, V8L
B28: 32-15 (ligand)
chain: B26 chain with L93A, Q94N, N96T, K97S, E99R, R101M, P102S, K104L
B29: 52-9 (ligand)
chain: B26 chain with G1A, Q2H, N3Y, H4N, H5T, V7I, V8L, S57D, Q61E
B30: 22-3 (ligand)
chain: AHYNTEILKSIDNEWRKTQCMPREVCIDVGKEFGVATNTFFKPPCVSVYRCGGCCNSEGLQCVPTEESNITMQIMRIKPHQGQHIGEMSFLQHNKCECRPKKD
B31: 72-6 (ligand)
chain: B24 chain with S57D, Q61E
B32: 82-14 (ligand)
chain: AHYNTEILKFMDVYQRSYCHPIETLVDIFQEFGVATNTFFKPPCVSVYRCGGCCNDEGLECMNTSTSYLSKTLFEITVPLSQGPKPVTISFANHTSCRCMSKLD
B33: 82-16 (ligand)
chain: B32 chain with D56S, E60Q
B34: 12-16 (ligand)
chain: GQNHHEVVKFMDVYQRSYCHPIETLVDIFQEFGVATNTFFKPPCVSVYRCGLLQ

These binders were tested against VEGFR-1-Fc (UniProt P17948) (assay: 35S IP, receptor-Fc).

binding, binds:
B1, B2, B3, B4, B5, B6, B7, B8, B9, B10, B11

The binders below were run against VEGFR-2-Fc (UniProt P35968) (assay: 35S IP, receptor-Fc).

binding, binds:
B12, B13, B14, B15, B16, B1, B2, B3, B4, B17, B18, B19, B20, B21, B22, B23, B24, B25, B5, B6, B7, B8, B9, B10, B11

These binders were tested against VEGFR-3-Fc (UniProt P35916) (assay: 35S IP, receptor-Fc).

binding, binds:
B12, B13, B14, B15, B16, B26, B27, B28, B29, B17, B18, B19, B20, B21, B22, B30, B23, B31, B24, B25, B32, B33, B34

What follows are binders tested against VEGFR-2-Fc (UniProt P35968) (assay: 35S IP, receptor-Fc, relative signal strength).

binding, binds:
B15

What follows are binders tested against VEGFR-3-Fc (UniProt P35916) (assay: 35S IP, receptor-Fc, relative signal strength).

binding, binds:
B15
